## Cleaved PARP in drug-treated melanoma cells

Drugs:
decitabine: Nc1ncn([C@H]2C[C@H](O)[C@@H](CO)O2)c(=O)n1 at 0.5 µM
SU6656: CN(C)S(=O)(=O)c1ccc2c(c1)/C(=C/c1cc3c([nH]1)CCCC3)C(=O)N2 at 2 µM
L-779450: Oc1cc(-c2nc(-c3ccccc3)[nH]c2-c2ccncc2)ccc1Cl at 1 µM
darinaparsin: C[As](C)SC[C@H](NC(=O)CC[C@H](N)C(=O)O)C(=O)NCC(=O)O at 2 µM
VX-702: NC(=O)c1ccc(N(C(N)=O)c2c(F)cccc2F)nc1-c1ccc(F)cc1F at 2 µM
vorinostat: O=C(CCCCCCC(=O)Nc1ccccc1)NO at 0.4 µM
bortezomib: CC(C)C[C@H](NC(=O)[C@H](Cc1ccccc1)NC(=O)c1cnccn1)B(O)O at 0.005 µM

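Human melanoma cell lines in 1,536-well plates were treated with a pair of drugs for 72 h, then fixed, stained and imaged. The read-out is the fraction of cleaved-PARP-positive nuclei, in % of that fraction in the DMSO control; 200 means twice the control level of this apoptosis marker. Every drug was used at one fixed concentration, the higher of two screened. These are primary screening values without error estimates. Basal and induced levels differ widely between cell lines.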 Only some of the drugs and lines screened are listed, without regard to their results. A dash means that no value is listed here.

| Drugs | SK-MEL-30 | WM3526 | UACC-62 | A2058 | A375 | SK-MEL-5 |
|---|---|---|---|---|---|---|
| darinaparsin + vorinostat | 130 | 222 | 159 | 51.1 | - | 167 |
| bortezomib + L-779450 | 302 | 1940 | 365 | 4410 | 142 | 413 |
| decitabine + darinaparsin | 101 | 73.3 | 123 | 198 | 71.1 | 162 |
| bortezomib + SU6656 | 750 | 2430 | 147 | 2430 | - | 922 |
| vorinostat + L-779450 | 90.3 | 205 | 973 | 96.3 | 395 | 180 |
| L-779450 + decitabine | 66.3 | 321 | 527 | 82.2 | 355 | 213 |
| VX-702 + vorinostat | 127 | 124 | 160 | 54.2 | - | 92.2 |
| bortezomib + vorinostat | 1260 | 5470 | 209 | 544 | - | 422 |
| decitabine + VX-702 | 87.2 | 70.9 | 259 | 250 | 99.9 | 214 |
| SU6656 + vorinostat | 109 | 112 | 72.0 | 373 | - | 82.9 |
| darinaparsin + SU6656 | 70.7 | 204 | 100 | 217 | - | 156 |
| SU6656 + decitabine | 115 | 227 | 201 | 236 | - | 147 |
| vorinostat + decitabine | 566 | 116 | 149 | 201 | - | 199 |
| L-779450 + darinaparsin | 81.4 | 354 | 743 | 99.4 | 156 | 416 |
| L-779450 + SU6656 | 36.6 | 275 | 358 | 119 | 137 | 194 |
| bortezomib + VX-702 | 1050 | 2900 | 312 | 1820 | 113 | 1500 |
| darinaparsin + bortezomib | 1360 | 2810 | 234 | 1870 | 188 | 941 |
| bortezomib + decitabine | 751 | 1390 | 242 | 1560 | 69.3 | 1160 |
| VX-702 + L-779450 | 153 | 84.8 | 556 | 123 | 116 | 214 |
| darinaparsin + VX-702 | 134 | 181 | 44.1 | 88.5 | 169 | 139 |
| VX-702 + SU6656 | 190 | 179 | 141 | 240 | - | 56.4 |

The last 2 entries again:

Drugs	SK-MEL-30	WM3526	UACC-62	A2058	A375	SK-MEL-5
darinaparsin + VX-702	134	181	44.1	88.5	169	139
VX-702 + SU6656	190	179	141	240	-	56.4

Values as published with doi:10.1371/journal.pone.0140310, rounded.